Data from paper PMC5373594.

System: T1, His6-WblI (Streptomyces lividans TK24)
T1 sequence (looked up): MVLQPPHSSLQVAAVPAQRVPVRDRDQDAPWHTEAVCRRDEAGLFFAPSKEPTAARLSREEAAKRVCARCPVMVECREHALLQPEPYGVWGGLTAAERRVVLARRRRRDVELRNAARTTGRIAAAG
Assay: EMSA
Conditions: 10 mM Tris-HCl pH 7.5, 50 mM KCl, 1 mM DTT, 20 µl, room temperature 15 min, 50 pmol probe, 5% native PAGE in 45 mM Tris-HCl pH 8.3, 45 mM boric acid, recombinant protein, residues 1-126, label: 5' FITC (Plabel primer S17), probe letters rebuilt from the primers and the genome

Sequence	binding result
AGCCAGTGGCGATAAGATCGGTAGTGCGGCAGGCGGCCTGCGCACTCCAGTCGGTTACCCAGCCCATACCGGCGCCGTCCTCTCCCGAATCGAGGCTCCCCCACGGCGGCAGCGGCATATTCACCGCCGCCAGTTGAGGACGTTACGGAAGGTGGGCACAGCGCAACACCCCCTTCGGGCCCAATCTTGAATGGCCCGAACGGACTATGGGTAAGCGGCAGATCACCCGGGGGAGTGAGCTGGCGACATGCGCGACGATCCCGACATTCAGGTCATCTCTGTTGCGTCACAACGGACACCGATTGACACACGAGGCGGATTCGGACACGTACCCCACACGCCGTGGCACGCGCCGGTACACACCAACGCGCCCCCCAGCGGGGCCCCTCGGAAAAAAATCGAGCGGATCCGGAACGATTCGGGGTCGCCGGACGTATTGATACGCTTATCGCCACTGGCT (double strand) [wblA promoter]	binds
AGCCAGTGGCGATAAGCGAGTACCAGCAGGTCGTCATCAAGGCGTTCTCCGTCTTCGGCAGCGTCGAGGTGCGCGTCCCGGAGAACGTGTCGGTGCGCGGCGCCGGCGGCAGCGTGCTCGGCAGCTTCGAGGTCCACACCCTCGACTCCAGCGAGGCCGAGGCCCCCGTCATCTACGTGGACGGCTGGGCCGTACTGGGCAGCGTGGAGGCCCGCCCCAAGCGCGGCAAGGTCGTCGCCGACATCCTCGACCGGATGCACCGACGCGTCGAGAAGGGTTTGCGCAAGCACGTGTAGGACGGCACCGGCAGCGGTCGGGAACCCAGTGCATAGGCGCGCGTACAACGGGTAAGCCTTGACGCATCGTCTCTCGCTAGCGAAGCCGTCGTCAGGAGTAGACCCGTGCTGCAACCGCCGCATTCGTCCCTGCAGGTAGCTTATCGCCACTGGCT (double strand) [wblI promoter]	binds
AGCCAGTGGCGATAAGGTCTCGTTCCGCGTCAACACCGAGACCGGCACGATCGACATCGGCGGGCACAACCTGACCGCCAGCAAGAAGTTCCGCAACGTCACCAAGCACGACCAGGTCGCCTTCGTCGTCGACGACCTGATCTCCACGCAGCCGTGGAACGTACGCGGTATCGAAGTGCGCGGCCGGGCCGAGGCGCTGACCGACGCGCAGCCGCCGCACCCCTACTTCGGTACCGCGATGATCCGTATCCACCCCAAGCGCATCATCACCTGGGGCCTCGGCGGCGACGCCGCCCAGCGCGGCCGCGACGTCTGACCCAGCACCCTTCGACTCCGCTTCGAGCGGACCTCGACGCCCTCTTGCCAAGGTGGAGCCCGTAGGACGGGTACACCACGGGGAGGGCGGCTGGATGAGTACCTTATCGCCACTGGCT (double strand) [actVA3 promoter]	binds

Tags and fusion partners may be left off the protein sequences shown.
